Laboratory results taken from paper PMC8564113, “Erianin: A Direct NLRP3 Inhibitor With Remarkable Anti-Inflammatory Activity” (Frontiers in Immunology, 2021).
These are yes or no findings as the source states them, for the method shown. Binding seen in cells or lysates may run through a third protein. Some results given as binding are weak or reduced against the parent protein; the word gives no strength. Values belong to the molecule of their own block, whether it stands above or below them.

The chains behind the UniProt entries cited, without tags or fusion partners. Where a name states a change or a piece, a line headed by the entry shows the natural chain unless it says otherwise.
UniProt Q9ULZ3: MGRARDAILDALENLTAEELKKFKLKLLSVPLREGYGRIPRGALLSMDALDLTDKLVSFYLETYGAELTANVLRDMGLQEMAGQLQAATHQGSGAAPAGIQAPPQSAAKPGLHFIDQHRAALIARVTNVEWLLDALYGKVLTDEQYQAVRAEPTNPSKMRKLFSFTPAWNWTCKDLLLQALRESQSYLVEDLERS
UniProt Q8TDX7: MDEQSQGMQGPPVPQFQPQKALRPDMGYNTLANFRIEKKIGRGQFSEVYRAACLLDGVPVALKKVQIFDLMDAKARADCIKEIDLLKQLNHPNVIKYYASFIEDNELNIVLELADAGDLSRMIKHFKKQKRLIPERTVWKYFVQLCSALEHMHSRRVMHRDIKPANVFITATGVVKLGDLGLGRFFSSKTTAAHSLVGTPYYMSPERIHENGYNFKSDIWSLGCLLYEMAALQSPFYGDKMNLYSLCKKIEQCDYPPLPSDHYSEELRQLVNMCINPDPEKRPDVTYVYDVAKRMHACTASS
UniProt P29466: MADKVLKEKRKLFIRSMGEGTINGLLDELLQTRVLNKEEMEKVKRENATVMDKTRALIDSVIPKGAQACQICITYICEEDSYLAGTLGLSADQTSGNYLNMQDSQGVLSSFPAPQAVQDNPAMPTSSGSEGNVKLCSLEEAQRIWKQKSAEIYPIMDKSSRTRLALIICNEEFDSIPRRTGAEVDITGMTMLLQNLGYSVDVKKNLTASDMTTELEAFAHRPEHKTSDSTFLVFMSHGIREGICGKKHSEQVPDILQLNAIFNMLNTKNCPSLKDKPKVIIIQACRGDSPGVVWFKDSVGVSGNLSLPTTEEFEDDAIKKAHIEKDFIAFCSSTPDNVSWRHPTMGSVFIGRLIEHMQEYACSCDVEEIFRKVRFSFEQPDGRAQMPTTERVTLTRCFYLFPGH

How the values were obtained:
Myc-ASC = Myc-ASC (UniProt Q9ULZ3); test: co-IP; HEK293T co-transfected for 36 h, no Eri; 500 ug extract with primary antibody overnight at 4 C, protein A/G Sepharose CL-4B, western blot (ASC-Casp-1 kept also with Eri 5 nM, 6 h)
[1] = target: Myc-tagged NEK7 (printed as Myc-tagged MEK7) (UniProt Q8TDX7); test: co-IP; exogenous proteins, with Eri (Figure S4A; cells and tags not shown)
[2] = target: NEK7 (endogenous, Figure S4B) (UniProt Q8TDX7); test: co-IP; endogenous proteins, with Eri (Figure S4B; cells not shown)

binding (Myc-ASC): binds
Molecule: Flag-Casp-1 (from UniProt P29466 1-404)

binding [1]: binds
B1: NEK9 (exogenous) (protein, UniProt Q8TD19 1-979)
chain: MSVLGEYERHCDSINSDFGSESGGCGDSSPGPSASQGPRAGGGAAEQEELHYIPIRVLGRGAFGEATLYRRTEDDSLVVWKEVDLTRLSEKERRDALNEIVILALLQHDNIIAYYNHFMDNTTLLIELEYCNGGNLYDKILRQKDKLFEEEMVVWYLFQIVSAVSCIHKAGILHRDIKTLNIFLTKANLIKLGDYGLAKKLNSEYSMAETLVGTPYYMSPELCQGVKYNFKSDIWAVGCVIFELLTLKRTFDATNPLNLCVKIVQGIRAMEVDSSQYSLELIQMVHSCLDQDPEQRPTADELLDRPLLRKRRREMEEKVTLLNAPTKRPRSSTVTEAPIAVVTSRTSEVYVWGGGKSTPQKLDVIKSGCSARQVCAGNTHFAVVTVEKELYTWVNMQGGTKLHGQLGHGDKASYRQPKHVEKLQGKAIRQVSCGDDFTVCVTDEGQLYAFGSDYYGCMGVDKVAGPEVLEPMQLNFFLSNPVEQVSCGDNHVVVLTRNKEVYSWGCGEYGRLGLDSEEDYYTPQKVDVPKALIIVAVQCGCDGTFLLTQSGKVLACGLNEFNKLGLNQCMSGIINHEAYHEVPYTTSFTLAKQLSFYKIRTIAPGKTHTAAIDERGRLLTFGCNKCGQLGVGNYKKRLGINLLGGPLGGKQVIRVSCGDEFTIAATDDNHIFAWGNGGNGRLAMTPTERPHGSDICTSWPRPIFGSLHHVPDLSCRGWHTILIVEKVLNSKTIRSNSSGLSIGTVFQSSSPGGGGGGGGGEEEDSQQESETPDPSGGFRGTMEADRGMEGLISPTEAMGNSNGASSSCPGWLRKELENAEFIPMPDSPSPLSAAFSESEKDTLPYEELQGLKVASEAPLEHKPQVEASSPRLNPAVTCAGKGTPLTPPACACSSLQVEVERLQGLVLKCLAEQQKLQQENLQIFTQLQKLNKKLEGGQQVGMHSKGTQTAKEEMEMDPKPDLDSDSWCLLGTDSCRPSL

binding [2]: binds
B2: NEK9 (endogenous, Figure S4B) (protein, UniProt Q8TD19 1-979)
chain: MSVLGEYERHCDSINSDFGSESGGCGDSSPGPSASQGPRAGGGAAEQEELHYIPIRVLGRGAFGEATLYRRTEDDSLVVWKEVDLTRLSEKERRDALNEIVILALLQHDNIIAYYNHFMDNTTLLIELEYCNGGNLYDKILRQKDKLFEEEMVVWYLFQIVSAVSCIHKAGILHRDIKTLNIFLTKANLIKLGDYGLAKKLNSEYSMAETLVGTPYYMSPELCQGVKYNFKSDIWAVGCVIFELLTLKRTFDATNPLNLCVKIVQGIRAMEVDSSQYSLELIQMVHSCLDQDPEQRPTADELLDRPLLRKRRREMEEKVTLLNAPTKRPRSSTVTEAPIAVVTSRTSEVYVWGGGKSTPQKLDVIKSGCSARQVCAGNTHFAVVTVEKELYTWVNMQGGTKLHGQLGHGDKASYRQPKHVEKLQGKAIRQVSCGDDFTVCVTDEGQLYAFGSDYYGCMGVDKVAGPEVLEPMQLNFFLSNPVEQVSCGDNHVVVLTRNKEVYSWGCGEYGRLGLDSEEDYYTPQKVDVPKALIIVAVQCGCDGTFLLTQSGKVLACGLNEFNKLGLNQCMSGIINHEAYHEVPYTTSFTLAKQLSFYKIRTIAPGKTHTAAIDERGRLLTFGCNKCGQLGVGNYKKRLGINLLGGPLGGKQVIRVSCGDEFTIAATDDNHIFAWGNGGNGRLAMTPTERPHGSDICTSWPRPIFGSLHHVPDLSCRGWHTILIVEKVLNSKTIRSNSSGLSIGTVFQSSSPGGGGGGGGGEEEDSQQESETPDPSGGFRGTMEADRGMEGLISPTEAMGNSNGASSSCPGWLRKELENAEFIPMPDSPSPLSAAFSESEKDTLPYEELQGLKVASEAPLEHKPQVEASSPRLNPAVTCAGKGTPLTPPACACSSLQVEVERLQGLVLKCLAEQQKLQQENLQIFTQLQKLNKKLEGGQQVGMHSKGTQTAKEEMEMDPKPDLDSDSWCLLGTDSCRPSL
